Measurements: PubChem BioAssay AID1487 (National Center for Advancing Translational Sciences (NCATS), 2009)
Screen size: about 200,000 compounds; about 25 (0.01%) were called active. Inconclusive results, whose numbers are uncertain, are shown with a selection of clear calls. Calls come from the whole dose curve; as a rule, active = well fitted inhibition curve with a large enough effect in the signal ratio, with a control signal flat (not every such curve was filed as active); inconclusive = small, poorly fitted or top-dose-only effect, or effect the other way, or a change in a side signal; inactive = flat fitted curve, though single readings scatter; the % refers to the signal ratio. Potencies beside an inconclusive call are fits to weak or partial responses and may not hold up. More than one record can exist for a structure, and the calls need not agree.
% is set by controls: 0 for no effect and ±100 for the full control effect; potency is the fitted concentration of half-maximal effect.

Test: qHTS Assay for Modulators of Lamin A Splicing
Settings: HeLa LMNA splicing GFP/RFP minigene ratio, 48 h; ratio change, negative = inhibition: at 46.1 µM (top of the series) unless noted
Outline: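 S3 HeLa stable clones carrying a lamin A-EGFP splicing minigene plus DsRed2 were seeded at 600 cells/well in Opti-MEM with 2% FBS, pin-dosed and incubated 48 h at 37°C. Acumen cytometry (488 nm) gave the GFP/RFP total-intensity ratio.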
With CCOc1ccc2nc(SC3CC(=O)N(c4ccccc4)C3=O)sc2c1 (configuration not stated) the Potency was inconclusive: 35.5 µM [cytotoxic, single point]. For COc1cccc(CN2CCc3nc(Nc4ccc5c(c4)OCCO5)ncc3C2)c1, the ratio change, negative = inhibition was inconclusive: -14.9% [at 46 µM]. For CC(C)(C)n1ncc2c(=O)n(CC(=O)NCc3ccco3)cnc21, the Potency was inconclusive: 35.5 µM [inhibitor, single point]. With COc1cc(/C=C(/C#N)C(=O)Nc2ccc(C)cc2)ccc1Oc1nc(Cl)ncc1F the ratio change, negative = inhibition was inconclusive: -5.12%. With Cc1c2c(n3c(nc4ccccc43)c1C#N)N(CCCN(C)C)CC2 the Potency was inconclusive: 7.94 µM [inhibitor, partial curve]. With O=C(/C=C/c1ccc(Cl)cc1Cl)Nc1cccc(S(=O)(=O)NC2=NCCC2)c1 the Potency was inconclusive: 22.4 µM [inhibitor, single point]. For Cc1noc(C)c1-c1nc(Nc2ccncc2)c2ccccc2n1, the Potency was inconclusive: 11.2 µM [inhibitor, partial curve, poor fit]. With CCOC(=O)C(C)Sc1nnc(Cn2c(=O)sc3ccccc32)n1-c1ccccc1 (configuration not stated) the “ratio change, negative = inhibition” value was inactive: 0.659%. With O=C(COc1ccc(Cl)cc1[N+](=O)[O-])NC1CCCCC1 the ratio change, negative = inhibition was inconclusive: -51.1% [at 46 µM]. With O=C(N/N=C/c1ccc2c(c1)OCO2)c1cc(-c2ccc(F)cc2)nc2ccccc12 the ratio change, negative = inhibition was inconclusive: -29.6%. In the case of Cc1c(CCOC(=O)c2cc([N+](=O)[O-])cc([N+](=O)[O-])c2)sc[n+]1CC(=O)c1ccc(Br)cc1, the “ratio change, negative = inhibition” value is reported as inactive: 26.7% [at 46 µM]. In the case of COc1ccc(NC(=O)CN2CCN(CC(=O)Nc3ccc(OC)c(OC)c3)CC2)cc1, the “ratio change, negative = inhibition” value is reported as inactive: -12.6%. With COc1ccccc1NS(=O)(=O)c1cc(C(=O)NCCC(C)C)ccc1F the ratio change, negative = inhibition was inconclusive: -28.7% [at 46 µM]. With Cn1nc(C(=O)NCc2cccc(Cl)c2)c2c1-c1ccccc1S(=O)(=O)C2 the ratio change, negative = inhibition was inconclusive: -10.5% [at 46 µM]. For Cc1c(C(=O)NCc2ccccn2)sc2nc(-c3ccc(F)cc3)cn12, the ratio change, negative = inhibition was inconclusive: -0.75%. With NC(=O)C1CCN(c2ncnc3c2c(-c2ccccc2)cn3-c2ccccc2)CC1 the “ratio change, negative = inhibition” value was inactive: -26.5%. In the case of CCc1ccc(NC2=NCC(c3ccccc3)S2)cc1 (configuration not stated), the ratio change, negative = inhibition is reported as inconclusive: -39% [at 46 µM]. With O=C(Nc1ccncc1)c1cccs1 the ratio change, negative = inhibition was inconclusive: 20%. For N#Cc1c(NC(=O)c2ccccc2Cl)n(Cc2ccccc2)c2nc3ccccc3nc12, the “ratio change, negative = inhibition” value was inactive: -26.6%. With COC(=O)CC1c2ccccc2C=C(C)N1C(=O)OC (configuration not stated) the ratio change, negative = inhibition was inactive: -3.21% [at 9.22 µM]. In the case of Cc1cc(C)c2oc(C(=O)Nc3ccc(S(=O)(=O)N4CCCC(C)C4)cc3)cc(=O)c2c1 (configuration not stated), the ratio change, negative = inhibition is reported as inconclusive: 8.05%. For COc1ccc(S(=O)(=O)Nc2ccccn2)c(C)c1C, the “ratio change, negative = inhibition” value was inactive: -7.44%. With CCN1CCC2(CC1)N=C(c1ccc(F)cc1)C(=S)N2C(=O)c1ccc(C)cc1 the Potency was inconclusive: 35.5 µM [falling, single point]. In the case of Cc1ccc(C(=O)NCC(c2ccc3c(c2)OCO3)N2CCN(C)CC2)cc1C (configuration not stated), the “ratio change, negative = inhibition” value is reported as inactive: 15.5% [at 46 µM]. With NCCc1cnc[nH]1 the Potency was active: 0.891 µM. For CC(=NCCCNC1CCCCC1)C1=C(O)CC(C)(C)CC1=O, the “ratio change, negative = inhibition” value was inactive: 7.98%. In the case of Cc1cc(C)c(/C=C/c2onc(C)c2S(=O)(=O)N2CCC(C(=O)N(C)Cc3ccccc3)CC2)c(C)c1, the “ratio change, negative = inhibition” value is reported as inactive: -16.2% [at 46 µM]. In the case of CCCn1c(SCC(=O)NCC2CCCO2)nc2c1c(=O)n(C)c(=O)n2C (configuration not stated), the ratio change, negative = inhibition is reported as inconclusive: 3.89%. With O=C(c1ccc(S(=O)(=O)c2cccc(Cl)c2)c([N+](=O)[O-])c1)N1CCN(Cc2ccccc2)CC1 the Potency was inconclusive: 35.5 µM [cytotoxic, single point]. For CC(=O)c1c(C)nc(-c2ccc(Cl)cc2Cl)n1O, the “ratio change, negative = inhibition” value was inactive: -8.21%. In the case of c1ccc(Cc2nn3c(C4COc5ccccc5O4)nnc3s2)cc1 (configuration not stated), the “ratio change, negative = inhibition” value is reported as inactive: -19.3%. In the case of Cc1ccc(S(=O)(=O)N2CCC(C(=O)O)CC2)cc1, the ratio change, negative = inhibition is reported as inconclusive: 0.452% [at 46 µM]. In the case of COc1ccc(OC)c(N/C(C)=C/C(=O)c2ccc(Br)cc2)c1, the ratio change, negative = inhibition is reported as inconclusive: -38.9% [at 46 µM]. For Cn1c(O)c(/C=C2\C=NN=C2c2ccccc2)sc1=S, the ratio change, negative = inhibition was inconclusive: 21.9% [at 46 µM]. In the case of O=C(Nc1ccc(S(=O)(=O)Nc2ncccn2)cc1)c1ccccc1NS(=O)(=O)c1ccc(F)cc1, the ratio change, negative = inhibition is reported as inconclusive: 6.01% [at 46 µM]. For Cn1c(/C(C#N)=C(\O)COc2ccc3ccccc3c2)nc2ccccc21, the ratio change, negative = inhibition was inconclusive: 8.34%. With COc1cccc(CNC(=O)c2oc3c(c2C)-c2nn(Cc4cccc(Cl)c4)cc2CC3)c1 the Potency was inconclusive: 35.5 µM [cytotoxic, single point]. With CCOC(=O)CN1C(=O)N[C@@H](c2cccc(C(F)(F)F)c2)[C@H](C(C)=O)[C@H]1C the ratio change, negative = inhibition was inconclusive: -11.5% [at 9.22 µM]. In the case of O=C(c1ccccc1)N1CCN(C(=O)c2ccccc2)CC1, the “ratio change, negative = inhibition” value is reported as inactive: -11.3%. In the case of N#Cc1c(-n2cccc2)cccc1-n1cccc1, the ratio change, negative = inhibition is reported as inconclusive: 8.16%. For Cc1ncc(CC(=O)n2cc(C(=O)c3cc(Cl)ccc3O)cn2)s1, the ratio change, negative = inhibition was inconclusive: 7.96%. In the case of NCCCC(=O)O, the ratio change, negative = inhibition is reported as inconclusive: 2.42%. In the case of Cc1cccc(C(=O)N(NC(=O)Oc2ccccc2)C(C)(C)C)c1, the “ratio change, negative = inhibition” value is reported as inactive: 1.22%. In the case of Cc1ccc(-c2nn(C(C)(C)C)c3ncnc(N)c23)cc1, the Potency is reported as inconclusive: 11.2 µM [inhibitor, partial curve]. In the case of Cc1nn(Cc2ccccc2)c(C)c1C(=O)OCC(=O)c1cc(C)n(CC(F)(F)F)c1C, the ratio change, negative = inhibition is reported as inconclusive: 7.65%. In the case of O=C(CN1C(=O)CCC1=O)Nc1ccc(Br)cc1, the “ratio change, negative = inhibition” value is reported as inactive: -0.758%. In the case of O=C(Nc1ccc(Cl)cc1F)c1cc(S(=O)(=O)N2CCCCC2)ccc1F, the “ratio change, negative = inhibition” value is reported as inactive: 1.83%. For Cn1c(C(=O)NCCCN2CCCCC2)cc2sccc21, the ratio change, negative = inhibition was inconclusive: -11%. With C/C=C/c1ccc(OCCCNC)c(OC)c1 the “ratio change, negative = inhibition” value was inactive: -2.57%. In the case of Cn1c(SCC(=O)N2CCCc3ccccc32)nnc1-c1ccco1, the “ratio change, negative = inhibition” value is reported as inactive: -0.682%. With O=C(O)c1cc(-c2ccccc2)n(-c2ccc(Cl)cc2)n1 the ratio change, negative = inhibition was inconclusive: 33.4% [at 9.22 µM]. In the case of CN(C)C/C=C(/c1ccc(Br)cc1)c1cccnc1, the ratio change, negative = inhibition is reported as inconclusive: -5.1%. With Cc1ccc(NC(=O)CN(C)C(=O)CSc2nc3ccccc3c(=O)n2Cc2ccco2)cc1 the ratio change, negative = inhibition was inconclusive: -8.76%. In the case of CCN(c1ccc(Cl)cc1)S(=O)(=O)c1nnc(NC(=O)C2CCCCC2)s1, the ratio change, negative = inhibition is reported as inconclusive: -31.4% [at 46 µM]. With CC(=O)c1ccc(N2CCN(C(=S)Nc3ccc(Oc4ccccc4)cc3)CC2)cc1 the ratio change, negative = inhibition was inconclusive: -24.4% [at 46 µM]. In the case of C=C(C)COc1ccc2c(C)c(CC(=O)OC)c(=O)oc2c1C, the Potency is reported as inconclusive: 11.2 µM [falling, single point]. In the case of C/C=C/C=C/C(=O)O, the ratio change, negative = inhibition is reported as inconclusive: -11.5%. For Nc1nc(Br)c2c(F)cccc2c1-c1ccc(F)cc1, the ratio change, negative = inhibition was inconclusive: 14.7%. In the case of CCOc1ccc2ccccc2c1C(=O)N[C@@H]1C(=O)N2[C@@H]1SC(C)(C)[C@@H]2C(=O)O, the Potency is reported as inconclusive: 0.631 µM [inhibitor, full curve, poor fit]. In the case of CC1CN(c2nc3ccccc3cc2-c2ccccc2)CC(C)O1 (configuration not stated), the Potency is reported as inconclusive: 35.5 µM [falling, single point]. In the case of CNC(=S)/N=C/NOCc1c(Cl)cccc1Cl, the ratio change, negative = inhibition is reported as inconclusive: 13% [at 46 µM]. In the case of COc1cc(NS(=O)(=O)c2ccc(NC(=O)COc3ccccc3C)cc2)nc(OC)n1, the “ratio change, negative = inhibition” value is reported as inactive: 0.837%. With COc1ccc(Cn2ccnc2SCC(=O)NCc2ccccc2)cc1 the “ratio change, negative = inhibition” value was inactive: -7.82% [at 46 µM]. With O=C1C(C=Nc2ccc(F)cc2)=C(O)c2ccccc21 the “ratio change, negative = inhibition” value was inactive: 5.87% [at 46 µM]. With O=C(Nc1nnc(COc2ccc(Cl)cc2)s1)c1cccs1 the “ratio change, negative = inhibition” value was inactive: -3.39%. With COC(=O)C(C(=O)OC)=C(/C=C/N(C)C)N(C)C the “ratio change, negative = inhibition” value was inactive: -4.91%. For NCCCNCCCCNCCCN, the ratio change, negative = inhibition was inconclusive: -19.1%. For NS(=O)(=O)c1ccc(N/N=C2/CCCCC2C2CCCCC2)c([N+](=O)[O-])c1 (configuration not stated), the Potency was inconclusive: 25.1 µM [cytotoxic, single point]. In the case of Cc1ccc(-n2c(SCC(=O)NC3CCS(=O)(=O)C3)nc3ccccc3c2=O)cc1 (configuration not stated), the ratio change, negative = inhibition is reported as inconclusive: 7.87% [at 46 µM]. With Cc1cc2nc(Sc3c([N+](=O)[O-])nc(C)n3Cc3ccccc3)[nH]c2cc1C the Potency was inconclusive: 35.5 µM [cytotoxic, single point]. With Cc1oc(-c2cccc(Cl)c2)nc1CSc1nc2ncccc2[nH]1 the “ratio change, negative = inhibition” value was inactive: 15.4% [at 46 µM]. For COc1ccc(S(=O)(=O)NCc2ccco2)c2ccccc12, the Potency was inconclusive: 35.5 µM [activator, single point]. In the case of CS(=O)(=O)N1CCN(c2ccc(NC(=S)NC(=O)c3ccc4c(c3)OCO4)cc2)CC1, the ratio change, negative = inhibition is reported as inconclusive: -24.6% [at 46 µM]. In the case of O=C(O)CCn1c(=O)c2ccccc2c2ccccc2c1=O, the “ratio change, negative = inhibition” value is reported as inactive: 21.5%. With Cc1ccc2nc(Cl)c(CN(Cc3cccs3)C(=O)C3CC3)cc2c1 the Potency was inconclusive: 35.5 µM [falling, single point]. In the case of Cc1csc2nc(CNC(=O)c3cccc(C(F)(F)F)c3)cn12, the ratio change, negative = inhibition is reported as inconclusive: 12.2%. With COc1ccc(NC(=O)/C(C#N)=C\c2cc(C)n(-c3ccc(Oc4ccc([N+](=O)[O-])cn4)cc3)c2C)cc1 the “ratio change, negative = inhibition” value was inactive: -8.68%. With CCOC(=O)C1CCCN(C(=O)c2sc3nc(C)nc(N(CC)CC)c3c2C)C1 (configuration not stated) the “ratio change, negative = inhibition” value was inactive: -9.6%. With CC(=O)C(Cc1ccc(Cl)nc1)(Cc1ccc(Cl)nc1)C(C)=O the ratio change, negative = inhibition was inconclusive: 7.25% [at 46 µM]. In the case of CC(=O)c1ccc(N2CCN(C(=O)c3ccc(NC(=O)C4CCCO4)cc3)CC2)cc1 (configuration not stated), the “ratio change, negative = inhibition” value is reported as inactive: -2.96%. In the case of O=C(/C=C/Nc1ccc(F)cc1)c1ccco1, the “ratio change, negative = inhibition” value is reported as inactive: 11.2%. With NC(=S)n1[nH]c(-c2ccc([N+](=O)[O-])cc2)c(N=Nc2ccc(Cl)cc2)c1=O the ratio change, negative = inhibition was inconclusive: -41.2% [at 46 µM].
